Laboratory results taken from doi:10.1101/2022.02.17.480956 (bioRxiv, 2022).
These are yes or no findings as the source states them, for the method shown. For some assays here: Binding seen in cells or lysates may run through a third protein. Some binding calls cover weakened binding; strength is not graded here. For some assays here: Where a sequence is shown, tags or fusion partners need not be part of it.

Chains of the proteins cited; added tags and fusions are not shown. Lines headed by an entry give the natural chain unless they say otherwise; changes in a name come on top. A line that says so, or that is headed by a name, gives the form on record, which may keep a tag or linker.
UniProt P97334: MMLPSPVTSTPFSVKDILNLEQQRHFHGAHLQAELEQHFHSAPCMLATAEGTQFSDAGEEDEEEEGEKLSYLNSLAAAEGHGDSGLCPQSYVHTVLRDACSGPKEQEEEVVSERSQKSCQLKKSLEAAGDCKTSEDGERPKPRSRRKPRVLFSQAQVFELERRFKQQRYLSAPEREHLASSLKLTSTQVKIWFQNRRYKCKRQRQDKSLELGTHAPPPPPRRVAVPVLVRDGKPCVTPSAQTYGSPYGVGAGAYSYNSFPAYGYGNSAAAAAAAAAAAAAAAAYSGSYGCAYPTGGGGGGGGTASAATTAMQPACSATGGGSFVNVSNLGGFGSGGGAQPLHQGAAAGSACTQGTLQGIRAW
NKX2-3^ΔTN (P97334, form named): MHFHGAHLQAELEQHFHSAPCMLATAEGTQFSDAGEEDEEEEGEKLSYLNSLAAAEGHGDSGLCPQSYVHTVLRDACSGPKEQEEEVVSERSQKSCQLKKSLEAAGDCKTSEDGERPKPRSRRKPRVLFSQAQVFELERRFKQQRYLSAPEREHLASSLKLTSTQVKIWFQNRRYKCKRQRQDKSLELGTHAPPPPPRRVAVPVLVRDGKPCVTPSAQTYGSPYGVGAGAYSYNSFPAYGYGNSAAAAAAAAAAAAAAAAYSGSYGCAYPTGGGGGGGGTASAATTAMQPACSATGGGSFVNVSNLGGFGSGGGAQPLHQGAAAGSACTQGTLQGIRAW

What was measured:
[1] = biological target: T1, COUP-TFII (endogenous, DN-MAML bEnd.3 cells) (mouse (endogenous in bEnd.3)) (UniProt P43135); test: proximity ligation
T1 sequence: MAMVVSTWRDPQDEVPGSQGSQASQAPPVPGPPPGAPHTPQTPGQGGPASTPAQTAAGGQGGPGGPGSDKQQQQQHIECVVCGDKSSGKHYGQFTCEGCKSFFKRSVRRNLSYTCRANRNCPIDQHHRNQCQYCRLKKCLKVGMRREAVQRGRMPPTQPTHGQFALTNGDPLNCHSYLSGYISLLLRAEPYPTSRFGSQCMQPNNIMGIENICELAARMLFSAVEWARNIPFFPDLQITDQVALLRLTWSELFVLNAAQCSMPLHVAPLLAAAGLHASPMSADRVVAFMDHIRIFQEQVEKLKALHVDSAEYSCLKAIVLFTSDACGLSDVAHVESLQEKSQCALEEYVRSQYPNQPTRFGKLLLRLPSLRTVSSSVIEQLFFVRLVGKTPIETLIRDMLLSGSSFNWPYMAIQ

[2] = biological target: T2, recombinant COUP-TFII (construct not told for this experiment) (mouse) (UniProt P43135); test: native gel or EMSA
T2 sequence: T1 sequence

| Substance | binding [1] | binding [2] |
| --- | --- | --- |
| NKX2-3 (endogenous, DN-MAML bEnd.3 cells) (from UniProt P97334 1-362) | binds |  |
| NKX2-3^ΔTN (from UniProt P97334 1-362) |  | no binding |
